# The other results are listed elsewhere or left out. Shown are side measurements of this screen, not its main read-out; they come without a call. The list favours compounds with an active or inconclusive main result. Words in brackets tell the shape of the fitted curve; partial curves, single points and poor fits give uncertain potencies.
# Assay: qHTS Assay to Find Inhibitors of Chronic Active B-Cell Receptor Signaling
# Conditions: ABC-DLBCL IkBa-CBG/CBR reporter, luminescence ratio (green luciferase fused to IkBa over red control in TMD8 lymphoma cells), 4 h
# Method in brief: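 Doxycycline induced both beetle luciferases in TMD8 lymphoma cells; IKK-driven degradation limits the IkappaBalpha-fused green signal, while red luminescence normalises for cell number and nonspecific effects. Compounds tested up to 46 uM, 4 hrs.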
# [1] = measured here: CBR red luminescence, cell number
# [2] = measured here: IkBa-CBG green luminescence
SMILES,AC50 [1],AC50 [2]
CSc1ncccc1C(=O)Nc1nc2ccc(F)cc2s1,"14.1 µM [falling, partial curve, poor fit]","1.41 µM [rising, full curve, poor fit]"
COc1ccc(C(=O)N2c3ccccc3C(=O)OC2c2ccc3c(c2)OCO3)cc1 (stereo not drawn),"2.91 µM [falling, full curve]",–
CN(C(=O)c1ccc2c(c1)SC1=NS(=O)(=O)CCN12)C(c1ccccc1)c1ccccc1,"16.4 µM [rising, partial curve, poor fit]",–
CC(C)(C)C(=O)Nc1cc2nn(-c3ccccc3)nc2cc1Cl,"2.91 µM [rising, full curve, poor fit]",–
Cc1cc2ccccc2n1CCNC(=O)C(C)C,"29.1 µM [rising, single point]",–
CC1=CC(C)(C)N(S(=O)(=O)c2ccc(C)cc2)c2cc(C)ccc21,"1.16 µM [rising, full curve]","1.64 µM [falling, full curve]"
CN1OC(CC(=O)O)N(c2ccc(Cl)cc2)C1=O (stereo not drawn),"18.4 µM [rising, partial curve]",–
Cc1ccc(NC(=O)c2nnn(-c3ccc4c(c3)OCCO4)c2N)cc1,"3.55 µM [falling, partial curve, poor fit]",–
CCCOC(=O)C1=C(C)NC2=C(C(=O)C(C(=O)OC)C(C)C2)C1c1ccc(N(C)C)cc1 (stereo not drawn),"15.8 µM [rising, partial curve, poor fit]",–
C=CC[C@H](CC(=O)N(CCO)Cc1ccccc1)C(=O)N[C@H](COC(=O)[C@H](CC=C)CC(=O)OC(C)(C)C)Cc1ccccc1,"29.1 µM [falling, single point]",–
Cc1nonc1CC(=O)N1CCc2c([nH]c3ccccc23)C1c1ccccc1F (stereo not drawn),"0.631 µM [falling, partial curve, poor fit]",–
COc1ccc(Cl)cc1NC(=O)COC(=O)Cc1cc(OC)c(OC)c(OC)c1,"4.11 µM [rising, partial curve, poor fit]",–
Brc1ccccc1C1N=C(c2ccccc2)NO1 (stereo not drawn),"17.8 µM [falling, single point]",–
O=C(O)CSc1nc2ccccc2s1,"11.2 µM [rising, partial curve]",–
CCc1nnc(NC(=O)C2Cc3ccccc3CN2S(=O)(=O)c2cccs2)s1 (stereo not drawn),"29.1 µM [falling, single point]",–
CC(=O)OCC(OC(C)=O)C(OC(C)=O)C(OC(C)=O)C(=O)Nc1ccc(C)cc1C (stereo not drawn),"14.1 µM [rising, partial curve, poor fit]",–

# Sorted by count of non-hydrogen atoms (rising): part of the list above.
SMILES,AC50 [1],AC50 [2]
COc1ccc(Cl)cc1NC(=O)COC(=O)Cc1cc(OC)c(OC)c(OC)c1,"4.11 µM [rising, partial curve, poor fit]",–
CC(=O)OCC(OC(C)=O)C(OC(C)=O)C(OC(C)=O)C(=O)Nc1ccc(C)cc1C (stereo not drawn),"14.1 µM [rising, partial curve, poor fit]",–
CCCOC(=O)C1=C(C)NC2=C(C(=O)C(C(=O)OC)C(C)C2)C1c1ccc(N(C)C)cc1 (stereo not drawn),"15.8 µM [rising, partial curve, poor fit]",–

# (next part)

SMILES,AC50 [1],AC50 [2]
O=C(/C=C/c1ccc(O)c(O)c1)c1ccccc1O,"0.1 µM [falling, full curve, poor fit]",–
CCOC(=O)c1sc(NC(=O)Cc2ccc(C)cc2)nc1C,"10 µM [falling, partial curve]",–
Cc1nc(-c2c(-c3ccc(O)cc3O)noc2C(F)(F)F)cs1,"29.1 µM [falling, single point]",–
CCN(CC)c1ccc(C(=O)c2ccccc2C(=O)O)c(O)c1,"25.9 µM [falling, partial curve, poor fit]",–
CC(=O)Nc1ccc(NC(=O)c2ccc(CSc3ccccc3)o2)cc1,"0.794 µM [falling, full curve, poor fit]",–
O=C(CSc1n[nH]c(=O)n1Cc1ccco1)c1ccc2c(c1)OCCO2,"0.501 µM [falling, partial curve, poor fit]",–
Cc1cc(Oc2ccc(N)cn2)cc(C)c1Cl,"4.47 µM [rising, single point]",–
O=C(CSC1=NCCN1)NC12CC3CC(CC(C3)C1)C2,"15.8 µM [falling, single point]",–
S=c1[nH]nc(-c2ccc(Cl)cc2Cl)n1Cc1ccccc1,"23.1 µM [rising, single point]",–
O=C(c1c(O)c2ccccc2oc1=O)C1CCCCC1,"23.1 µM [falling, single point]",–
Cc1nc(-c2ccc3c(c2)OCCO3)cs1,"1.12 µM [rising, partial curve, poor fit]",–
Oc1c(Br)cc(Br)cc1C=Nc1ccc2[nH]ncc2c1,"15.8 µM [falling, partial curve]",–
COc1ccc(NS(=O)(=O)c2ccc3oc(Nc4ccc5c(c4)OCCO5)nc3c2)cc1,"0.92 µM [rising, full curve, poor fit]",–
Cc1[nH]c2ccccc2c1CCN(Cc1cccs1)C(=S)Nc1ccccc1,"3.55 µM [rising, partial curve, poor fit]",–
Cc1ccc2nc(NC(=O)CCn3c(=O)sc4ccccc43)sc2c1,"29.1 µM [falling, single point]",–

# From PubChem BioAssay AID493014 (National Center for Advancing Translational Sciences (NCATS), 2011)
